T1: p140Cap (mouse (endogenous in synaptosomes of the telencephalon)) (UniProt Q9QWI6)
T1 sequence: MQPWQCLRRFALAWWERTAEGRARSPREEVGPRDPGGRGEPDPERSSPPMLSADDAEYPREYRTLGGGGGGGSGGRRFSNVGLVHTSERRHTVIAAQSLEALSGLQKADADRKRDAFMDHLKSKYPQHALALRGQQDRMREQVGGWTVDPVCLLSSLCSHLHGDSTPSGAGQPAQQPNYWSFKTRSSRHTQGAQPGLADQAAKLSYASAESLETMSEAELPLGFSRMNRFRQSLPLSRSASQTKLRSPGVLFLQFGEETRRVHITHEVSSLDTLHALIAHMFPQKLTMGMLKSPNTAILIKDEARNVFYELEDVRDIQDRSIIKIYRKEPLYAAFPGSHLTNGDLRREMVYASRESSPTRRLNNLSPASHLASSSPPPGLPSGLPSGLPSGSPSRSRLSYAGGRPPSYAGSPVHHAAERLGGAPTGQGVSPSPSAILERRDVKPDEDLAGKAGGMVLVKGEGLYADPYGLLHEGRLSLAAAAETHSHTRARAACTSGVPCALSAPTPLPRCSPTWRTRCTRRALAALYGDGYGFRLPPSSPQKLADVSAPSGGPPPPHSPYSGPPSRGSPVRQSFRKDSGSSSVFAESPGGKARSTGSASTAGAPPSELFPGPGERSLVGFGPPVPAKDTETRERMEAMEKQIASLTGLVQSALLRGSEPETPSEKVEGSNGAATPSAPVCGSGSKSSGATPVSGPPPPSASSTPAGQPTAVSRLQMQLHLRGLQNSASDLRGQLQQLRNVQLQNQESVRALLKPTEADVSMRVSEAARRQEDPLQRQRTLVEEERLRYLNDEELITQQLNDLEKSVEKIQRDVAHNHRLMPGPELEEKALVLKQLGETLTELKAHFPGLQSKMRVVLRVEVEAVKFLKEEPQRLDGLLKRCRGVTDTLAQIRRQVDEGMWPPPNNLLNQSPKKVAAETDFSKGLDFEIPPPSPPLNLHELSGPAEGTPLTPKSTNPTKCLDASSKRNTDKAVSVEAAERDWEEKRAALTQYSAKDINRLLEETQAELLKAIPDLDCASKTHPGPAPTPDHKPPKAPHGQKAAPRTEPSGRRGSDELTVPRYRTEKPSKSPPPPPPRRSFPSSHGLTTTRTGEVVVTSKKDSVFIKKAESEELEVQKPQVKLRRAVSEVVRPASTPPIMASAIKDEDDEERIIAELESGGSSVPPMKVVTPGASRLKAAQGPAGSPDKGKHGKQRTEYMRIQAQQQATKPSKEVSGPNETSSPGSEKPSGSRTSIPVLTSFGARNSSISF

The chains behind the UniProt entries cited, without tags or fusion partners. Where a name states a change or a piece, a line headed by the entry shows the natural chain unless it says otherwise. A line that says so, or that is headed by a name, gives the form on record, which may keep a tag or linker. Residues count along the entry.
UniProt P11798: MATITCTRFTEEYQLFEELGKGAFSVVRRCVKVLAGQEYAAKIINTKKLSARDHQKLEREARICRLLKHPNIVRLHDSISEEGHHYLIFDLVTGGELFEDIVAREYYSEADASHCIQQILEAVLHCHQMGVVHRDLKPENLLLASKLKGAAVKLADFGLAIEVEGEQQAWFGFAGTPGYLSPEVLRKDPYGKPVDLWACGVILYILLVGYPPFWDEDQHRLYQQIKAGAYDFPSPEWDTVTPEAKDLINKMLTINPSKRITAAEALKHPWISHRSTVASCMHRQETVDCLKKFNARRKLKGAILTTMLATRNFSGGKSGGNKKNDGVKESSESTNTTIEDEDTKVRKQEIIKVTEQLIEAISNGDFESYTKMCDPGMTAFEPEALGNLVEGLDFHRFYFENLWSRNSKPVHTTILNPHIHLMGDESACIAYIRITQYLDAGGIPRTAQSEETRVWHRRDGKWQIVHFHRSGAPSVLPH
Citron-N (P49025-3, form named): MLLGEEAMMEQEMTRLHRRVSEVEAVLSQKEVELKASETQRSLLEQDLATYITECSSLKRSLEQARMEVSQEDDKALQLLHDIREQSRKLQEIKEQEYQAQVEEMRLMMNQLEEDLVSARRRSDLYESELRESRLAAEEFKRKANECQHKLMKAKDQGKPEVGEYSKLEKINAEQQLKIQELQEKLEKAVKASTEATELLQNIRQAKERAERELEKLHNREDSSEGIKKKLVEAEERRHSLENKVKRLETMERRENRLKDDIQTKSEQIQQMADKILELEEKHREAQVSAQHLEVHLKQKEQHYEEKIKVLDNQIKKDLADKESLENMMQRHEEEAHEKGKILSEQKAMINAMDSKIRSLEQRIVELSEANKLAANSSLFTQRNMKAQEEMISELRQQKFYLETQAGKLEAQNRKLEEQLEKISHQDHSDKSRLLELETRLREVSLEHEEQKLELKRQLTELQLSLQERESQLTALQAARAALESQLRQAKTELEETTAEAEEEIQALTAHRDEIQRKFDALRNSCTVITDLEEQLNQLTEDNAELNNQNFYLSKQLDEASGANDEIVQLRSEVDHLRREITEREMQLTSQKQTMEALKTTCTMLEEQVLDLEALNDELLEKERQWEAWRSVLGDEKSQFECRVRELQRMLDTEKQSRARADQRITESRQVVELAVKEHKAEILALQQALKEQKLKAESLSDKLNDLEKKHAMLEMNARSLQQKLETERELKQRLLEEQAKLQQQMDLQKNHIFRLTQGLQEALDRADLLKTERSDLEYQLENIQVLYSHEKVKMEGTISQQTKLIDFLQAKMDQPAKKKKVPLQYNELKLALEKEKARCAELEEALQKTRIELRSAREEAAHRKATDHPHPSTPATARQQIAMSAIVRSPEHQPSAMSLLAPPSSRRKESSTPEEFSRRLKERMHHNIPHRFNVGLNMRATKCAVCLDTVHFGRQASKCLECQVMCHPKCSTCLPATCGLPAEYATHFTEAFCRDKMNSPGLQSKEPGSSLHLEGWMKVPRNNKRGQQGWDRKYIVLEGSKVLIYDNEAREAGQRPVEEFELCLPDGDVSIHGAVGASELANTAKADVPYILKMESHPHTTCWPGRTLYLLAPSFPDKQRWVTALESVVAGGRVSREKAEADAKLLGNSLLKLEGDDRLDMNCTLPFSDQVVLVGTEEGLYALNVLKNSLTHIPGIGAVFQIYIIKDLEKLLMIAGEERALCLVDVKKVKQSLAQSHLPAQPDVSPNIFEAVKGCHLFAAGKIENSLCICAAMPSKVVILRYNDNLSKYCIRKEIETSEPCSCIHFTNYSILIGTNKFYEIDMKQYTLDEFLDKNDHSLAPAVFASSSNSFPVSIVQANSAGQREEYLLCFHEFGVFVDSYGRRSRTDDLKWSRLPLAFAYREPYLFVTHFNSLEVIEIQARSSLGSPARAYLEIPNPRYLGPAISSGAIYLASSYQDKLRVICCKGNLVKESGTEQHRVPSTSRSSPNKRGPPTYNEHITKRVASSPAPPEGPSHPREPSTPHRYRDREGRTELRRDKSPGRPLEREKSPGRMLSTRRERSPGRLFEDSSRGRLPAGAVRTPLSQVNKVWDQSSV
UniProt Q9Z2W9, residues 23-888: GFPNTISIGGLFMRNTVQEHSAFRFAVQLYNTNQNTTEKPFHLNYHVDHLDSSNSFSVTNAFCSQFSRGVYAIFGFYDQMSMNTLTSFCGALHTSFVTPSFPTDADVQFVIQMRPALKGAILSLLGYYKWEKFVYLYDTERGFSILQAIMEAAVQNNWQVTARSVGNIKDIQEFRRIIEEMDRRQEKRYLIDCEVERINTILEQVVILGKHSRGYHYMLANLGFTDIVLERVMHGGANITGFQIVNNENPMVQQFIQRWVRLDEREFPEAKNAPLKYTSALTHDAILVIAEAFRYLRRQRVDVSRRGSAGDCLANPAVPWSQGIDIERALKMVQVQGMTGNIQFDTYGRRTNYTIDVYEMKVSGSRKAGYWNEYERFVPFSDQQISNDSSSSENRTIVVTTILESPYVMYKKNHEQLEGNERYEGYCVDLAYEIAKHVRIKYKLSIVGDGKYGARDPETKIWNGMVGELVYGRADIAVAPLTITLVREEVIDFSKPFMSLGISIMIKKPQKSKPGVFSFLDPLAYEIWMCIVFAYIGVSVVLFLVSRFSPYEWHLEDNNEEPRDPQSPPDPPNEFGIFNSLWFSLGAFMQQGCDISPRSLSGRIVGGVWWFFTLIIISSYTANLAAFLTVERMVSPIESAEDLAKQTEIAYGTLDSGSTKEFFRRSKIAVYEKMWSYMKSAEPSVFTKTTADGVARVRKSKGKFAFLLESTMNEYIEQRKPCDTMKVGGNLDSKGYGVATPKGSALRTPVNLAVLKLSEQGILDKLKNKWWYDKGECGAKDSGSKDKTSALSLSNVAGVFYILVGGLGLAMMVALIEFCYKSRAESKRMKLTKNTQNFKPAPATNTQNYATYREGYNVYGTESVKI
UniProt Q3TDK6: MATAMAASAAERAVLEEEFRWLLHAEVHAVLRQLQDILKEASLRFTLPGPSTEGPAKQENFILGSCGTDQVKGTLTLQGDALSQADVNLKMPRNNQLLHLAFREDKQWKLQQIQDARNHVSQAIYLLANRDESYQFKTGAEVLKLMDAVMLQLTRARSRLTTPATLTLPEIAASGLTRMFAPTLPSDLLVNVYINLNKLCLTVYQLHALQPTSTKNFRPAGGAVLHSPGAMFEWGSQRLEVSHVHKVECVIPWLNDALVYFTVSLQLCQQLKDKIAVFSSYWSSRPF
UniProt Q8BV79: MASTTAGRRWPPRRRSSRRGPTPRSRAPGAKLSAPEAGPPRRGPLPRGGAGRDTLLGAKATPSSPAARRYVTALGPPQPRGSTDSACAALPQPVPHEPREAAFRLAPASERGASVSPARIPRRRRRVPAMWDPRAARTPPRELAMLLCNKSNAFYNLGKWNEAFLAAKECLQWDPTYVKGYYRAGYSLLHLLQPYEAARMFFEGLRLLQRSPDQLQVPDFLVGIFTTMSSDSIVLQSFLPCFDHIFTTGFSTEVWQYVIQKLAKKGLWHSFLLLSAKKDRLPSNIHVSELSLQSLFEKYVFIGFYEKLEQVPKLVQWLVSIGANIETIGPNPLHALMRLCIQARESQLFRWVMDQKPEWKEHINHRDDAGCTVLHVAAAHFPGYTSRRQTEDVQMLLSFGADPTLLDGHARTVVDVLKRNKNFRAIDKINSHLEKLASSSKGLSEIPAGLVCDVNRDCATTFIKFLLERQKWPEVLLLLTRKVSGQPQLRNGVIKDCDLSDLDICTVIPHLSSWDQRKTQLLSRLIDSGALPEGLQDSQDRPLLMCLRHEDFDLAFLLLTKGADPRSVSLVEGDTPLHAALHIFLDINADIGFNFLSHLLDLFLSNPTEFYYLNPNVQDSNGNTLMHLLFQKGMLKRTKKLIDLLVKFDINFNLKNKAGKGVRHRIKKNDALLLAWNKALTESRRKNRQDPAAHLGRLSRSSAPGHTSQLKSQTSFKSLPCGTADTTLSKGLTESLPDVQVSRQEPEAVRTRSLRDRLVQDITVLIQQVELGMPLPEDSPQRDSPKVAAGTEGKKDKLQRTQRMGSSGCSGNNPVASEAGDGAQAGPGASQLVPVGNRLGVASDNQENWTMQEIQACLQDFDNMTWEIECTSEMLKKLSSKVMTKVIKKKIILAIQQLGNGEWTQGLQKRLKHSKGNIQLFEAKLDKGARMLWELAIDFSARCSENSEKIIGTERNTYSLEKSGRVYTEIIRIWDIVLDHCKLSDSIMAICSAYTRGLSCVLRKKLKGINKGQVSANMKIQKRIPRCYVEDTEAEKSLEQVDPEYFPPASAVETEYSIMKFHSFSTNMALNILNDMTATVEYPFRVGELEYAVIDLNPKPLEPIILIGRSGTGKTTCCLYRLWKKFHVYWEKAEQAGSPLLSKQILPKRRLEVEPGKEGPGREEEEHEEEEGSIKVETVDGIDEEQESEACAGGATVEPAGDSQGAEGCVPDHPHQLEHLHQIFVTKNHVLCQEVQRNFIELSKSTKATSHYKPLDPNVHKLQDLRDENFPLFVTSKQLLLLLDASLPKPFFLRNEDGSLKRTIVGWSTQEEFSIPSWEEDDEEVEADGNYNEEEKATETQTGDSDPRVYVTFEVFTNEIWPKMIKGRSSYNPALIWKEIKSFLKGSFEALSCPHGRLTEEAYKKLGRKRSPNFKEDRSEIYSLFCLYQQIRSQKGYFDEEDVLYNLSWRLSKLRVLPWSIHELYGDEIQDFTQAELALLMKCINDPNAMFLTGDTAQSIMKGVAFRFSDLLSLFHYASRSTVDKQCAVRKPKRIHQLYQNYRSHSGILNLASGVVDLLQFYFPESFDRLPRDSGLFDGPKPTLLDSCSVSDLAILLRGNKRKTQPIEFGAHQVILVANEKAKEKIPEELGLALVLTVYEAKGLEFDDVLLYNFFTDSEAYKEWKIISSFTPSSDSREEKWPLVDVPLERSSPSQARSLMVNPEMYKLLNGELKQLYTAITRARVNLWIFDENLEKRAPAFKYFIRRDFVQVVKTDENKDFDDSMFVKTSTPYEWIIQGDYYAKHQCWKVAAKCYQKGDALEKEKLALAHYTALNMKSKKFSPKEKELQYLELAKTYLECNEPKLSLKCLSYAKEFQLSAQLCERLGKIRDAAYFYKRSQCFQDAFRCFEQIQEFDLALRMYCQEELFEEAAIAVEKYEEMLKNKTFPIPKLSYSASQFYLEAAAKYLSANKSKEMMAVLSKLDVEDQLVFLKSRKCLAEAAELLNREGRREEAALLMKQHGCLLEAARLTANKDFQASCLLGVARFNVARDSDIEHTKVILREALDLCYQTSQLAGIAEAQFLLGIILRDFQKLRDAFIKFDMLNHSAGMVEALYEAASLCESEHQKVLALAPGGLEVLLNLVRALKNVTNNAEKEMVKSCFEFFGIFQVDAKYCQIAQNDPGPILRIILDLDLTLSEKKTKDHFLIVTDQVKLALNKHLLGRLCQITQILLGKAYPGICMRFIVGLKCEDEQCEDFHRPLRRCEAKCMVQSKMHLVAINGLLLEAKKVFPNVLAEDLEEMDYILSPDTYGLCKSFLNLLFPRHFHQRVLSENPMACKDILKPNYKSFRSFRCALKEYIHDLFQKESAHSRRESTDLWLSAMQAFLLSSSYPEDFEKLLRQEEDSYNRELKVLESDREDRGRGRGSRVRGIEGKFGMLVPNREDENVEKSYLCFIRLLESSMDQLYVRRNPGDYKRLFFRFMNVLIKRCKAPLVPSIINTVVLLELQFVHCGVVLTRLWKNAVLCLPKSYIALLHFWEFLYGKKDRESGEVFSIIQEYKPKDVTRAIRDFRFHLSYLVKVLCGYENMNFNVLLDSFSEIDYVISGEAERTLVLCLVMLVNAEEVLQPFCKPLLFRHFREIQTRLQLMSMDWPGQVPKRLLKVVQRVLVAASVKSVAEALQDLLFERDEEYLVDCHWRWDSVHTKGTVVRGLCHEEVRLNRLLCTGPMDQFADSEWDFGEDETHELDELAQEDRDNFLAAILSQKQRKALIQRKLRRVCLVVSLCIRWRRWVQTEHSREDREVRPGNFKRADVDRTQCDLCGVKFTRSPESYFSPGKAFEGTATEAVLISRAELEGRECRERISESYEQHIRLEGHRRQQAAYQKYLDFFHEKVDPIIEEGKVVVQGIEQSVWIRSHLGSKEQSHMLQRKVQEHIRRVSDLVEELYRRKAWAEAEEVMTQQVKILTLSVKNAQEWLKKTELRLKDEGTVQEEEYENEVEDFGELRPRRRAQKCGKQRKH

B1: FRMD4A (protein, UniProt Q8BIE6 1-1020)
chain: MTEGRRCQVHLLDDRKLELLVQPKLLAKELLDLVASHFNLKEKEYFGIAFTDETGHLNWLQLDRRVLEHDFPKKSGPVVLYFCVRFYIESISYLKDNATIELFFLNAKSCIYKELIDVDSEVVFELASYILQEAKGDFSSNEVVRSDLKKLPALPTQALKEHPSLAYCEDRVIEYYKKLNGQTRGQAIVNYMSIVESLPTYGVHYYAVKDKQGIPWWLGLSYKGIFQYDYHDKVKPRKIFQWRQLENLYFREKKFSVEVHDPRRASVTRRTFGHSGIAVHTWYACPALIKSIWAMAISQHQFYLDRKQSKSKIHAARSLSEIAIDLTETGTLKTSKLANMGSKGKIISGSSGSLLSSGSQESDSSQSAKKDMLAALKSRQEALEETLRQRLEELKRLCLREAELTGKLPVEYPLDPGEEPPIVRRRIGTAFKLDEQKILPKGEEAELERLEREFAIQSQITEAARRLASDPNVSKKLKKQRKTSYLNALKKLQEIENAINENRIKSGKKPTQRASLVIDDGNIASEDSSLSDALVLEDEDSQVTSTISPLQSPHKGLPPRPPSSHNRPPPPQSLEGLRQLHYHRTDYDKSPLKPKMWSESSLDEPYEKVKKRSSHGHSSSHKRFPSTGSCTEAGVSSSLQNSPIRSLPHWNSQSSMPSTPDLRVRSPHYVHSTRSVDISPTRLHSLALHFRHRSSSLESQGKLLGSENDTGSPDFYTPRTRSSNGSDPMDDCSSCTSHSSSEHYYPAQMNANYSTLAEDSPSKARQRQRQRQRAAGALGSASSGSMPNLAARSGAASTGGGVYLHSQSQPSSQYRIKEYPLYIEGSATPVVVRSLESDQEGHYSVKAQFKTSNSYTAGGLFKESWRGGGDEGDAGRLTPSRSQILRTPSLGRDGAHDKGSGRAAVSDELRQWYQRSTASHKEHSRLSHTSSTSSDSGSQYSTSSQSTFVAHSRVTRMPQMCKATSAALPQSQRSSTPSSEIGATPPSSPHHILTWQTGEATENSPIMDGSESPTHQSTDE
B2: Homer1 (protein, UniProt Q9Z2Y3 1-366)
chain: MGEQPIFSTRAHVFQIDPNTKKNWVPTSKHAVTVSYFYDSTRNVYRIISLDGSKAIINSTITPNMTFTKTSQKFGQWADSRANTVYGLGFSSEHHLSKFAEKFQEFKEAARLAKEKSQEKMELTSTPSQESAGGDLQSPLTPESINGTDDERTPDVTQNSEPRAEPTQNALPFPHSAGDRTQALSHASSAISKHWEAELATLKGNNAKLTAALLESTANVKQWKQQLAAYQEEAERLHKRVTELECVSSQANAVHSHKTELNQTVQELEETLKVKEEEIERLKQEIDNARELQEQRDSLTQKLQEVEIRNKDLEGQLSDLEQRLEKSQNEQEAFRSNLKTLLEILDGKIFELTELRDNLAKLLECS
B3: Cadm1/Syncam (protein, UniProt Q8R5M8 48-456)
chain: QNLFTKDVTVIEGEVATISCQVNKSDDSVIQLLNPNRQTIYFRDFRPLKDSRFQLLNFSSSELKVSLTNVSISDEGRYFCQLYTDPPQESYTTITVLVPPRNLMIDIQKDTAVEGEEIEVNCTAMASKPATTIRWFKGNKELKGKSEVEEWSDMYTVTSQLMLKVHKEDDGVPVICQVEHPAVTGNLQTQRYLEVQYKPQVHIQMTYPLQGLTREGDAFELTCEAIGKPQPVMVTWVRVDDEMPQHAVLSGPNLFINNLNKTDNGTYRCEASNIVGKAHSDYMLYVYDPPTTIPPPTTTTTTTTTTTTTILTIITDTTATTEPAVHDSRAGEEGTIGAVDHAVIGGVVAVVVFAMLCLLIILGRYFARHKGTYFTHEAKGADDAADADTAIINAEGGQNNSEEKKEYFI
B4: Shank2 (protein, UniProt Q80Z38 1-1476)
chain: MKSLLNAFTKKEVPFREAPAYSNRRRRPPNTLAAPRVLLRSNSDNNLNAGAPEWAVCSAATSHRSLSPQLLQQTPSKPDGATKSLGSYTPGPRSRSPSLNRLGGTAEDGKRTQPHWHVGSPFTPGANKDSLSTFEYPGPRRKLYSAVPGRLFVAVKPYQPQVDGEIPLHRGDRVKVLSIGEGGFWEGSARGHIGWFPAECVEEVQCKPRDSQAETRADRSKKLFRHYTVGSYDSFDAASDCIIEDKTVVLQKKDNEGFGFVLRGAKADTPIEEFTPTPAFPALQYLESVDEGGVAWQAGLRTGDFLIEVNNENVVKVGHRQVVNMIRQGGNHLILKVVTVTRNLDPDDTARKKAPPPPKRAPTTALTLRSKSMTAELEELGLSLVDKASVRKKKDKPEEIVPASKPSRTAENVAIESRVATIKQRPTSRCFPAASDVNSVYERQGIAVMTPTVPGSPKGPFLGLPRGTMRRQKSIDSRIFLSGITEEERQFLAPPMLKFTRSLSMPDTSEDIPPPPQSVPPSPPPPSPTTYNCPRSPTPRVYGTIKPAFNQNPVVAKVPPATRSDTVATMMREKGMFYRRELDRFSLDSEDVYSRSPAPQAAFRTKRGQMPENPYSEVGKIASKAVYVPAKPARRKGVLVKQSNVEDSPEKTCSIPIPTIIVKEPSTSSSGKSSQGSSMEIDPQATEPGQLRPDDSLTVSSPFAAAIAGAVRDREKRLEARRNSPAFLSTDLGDEDVGLGPPAPRMQASKFPEEGGFGDEDETEQPLLPTPGAAPRELENHFLGGGEAGAQGEAGGPLSSTSKAKGPESGPAAPLKSSSPAGPENYVHPLTGRLLDPSSPLALALSARDRAMQESQQGHKGEAPKADLNKPLYIDTKMRPSVESGFPPVTRQNTRGPLRRQETENKYETDLGKDRRADDKKNMLINIVDTAQQKSAGLLMVHTVDVPMAGPPLEEEEDREDGDTKPDHSPSTVPEGVPKTEGALQISAAPEPAVAPGRTIVAAGSVEEAVILPFRIPPPPLASVDLDEDFLFTEPLPPPLEFANSFDIPDDRAASVPALADLVKQKKNDTSQPPTLNSSQPANSTDSKKPAGISNCLPSSFLPPPESFDAVTDSGIEEVDSRSSSDHHLETTSTISTVSSISTLSSEGGESMDTCTVYADGQAFVVDKPPVPPKPKMKPIVHKSNALYQDTLPEEDTDGFVIPPPAPPPPPGSAQAGVAKVIQPRTSKLWGDVPEVKSPILSGPKANVISELNSILQQMNRGKSVKPGEGLELPVGAKSANLAPRSPEVMSTVSGTRSTTVTFTVRPGTSQPITLQSRPPDYESRTSGPRRAPSPVVSPTELSKEILPTPPPPSATAASPSPTLSDVFSLPSQSPAGDLFGLNPAGRSRSPSPSILQQPISNKPFTTKPVHLWTKPDVADWLESLNLGEHKETFMDNEIDGSHLPNLQKEDLIDLGVTRVGHRMNIERALKQLLDR

No constants are given. Whether binding was seen depends on the method and setting. In cells and extracts the contact can be indirect. A yes stands for co-enrichment or nearness to the bait. Other partners may have been found. No binding means not detected with the bait.

Our source for the binding values is paper PMC5492163.

The experiment deals with T1, p140Cap (mouse (endogenous in synaptosomes of the telencephalon)). The experiment in a line: affinity purification with mass spectrometry; p140Cap immunoprecipitated with Mab 2A8 cross-linked to protein G Dynabeads from 6 mg crude synaptosomal extract of WT mice (p140Cap KO as negative control), 2 h at 4°C, lysis buffer 150 mM NaCl, 50 mM Tris pH 7, 1% NP-40; label-free nanoLC-MS/MS, iBAQ, FDR 1% and at least 4-fold enrichment over KO.
Take CACNA1A (from UniProt P97445 1-2368): the binding result is on record as “binds”.
For CACNA1C (from UniProt Q01815 1-2139) the value was “no binding”.
On to CACNA1H (from UniProt O88427 1-2365), for which the binding result is “no binding”.
For CACNA2D1 the value was “binds”; for CACNA2D2, “binds”.
For CACNB2 (from UniProt Q8CC27 1-655) the value was “no binding”.
The same measure for “CNKSR2 (CNK2) (from UniProt Q80YA9 1-1032)”: “binds”; for “CTNNB1 (β-catenin) (from UniProt Q02248 1-781)”: “binds”; for “Camk2a (from UniProt P11798 1-478) (enzyme)”: “binds”.
For Citron-N (from UniProt P49025-3 1-1597), the binding result is listed as “binds”.
For “Gria3 (from UniProt Q9Z2W9 23-888) (receptor)” the value was “binds”; for “Grin2a (from UniProt P35436 23-1464) (receptor)”, “binds”.
For “Grin2b (from UniProt Q01097 27-1482) (receptor)” the value was “binds”; for ROGDI (from UniProt Q3TDK6 1-287), “binds”; for Shank3 (from UniProt Q4ACU6 1-1730), “binds”.
For TRANK1 (from UniProt Q8BV79 1-2999) the value was “binds”.
With B1, the binding entry was “binds”.
For B2 the value was “binds”; for B3, “binds”; for B4, “binds”.
